From paper PMC4798371

Amino acid sequences for entries named in this document (tags omitted). A change or cut given only in a name is not applied to a line headed by its entry.
UniProt Q38C69: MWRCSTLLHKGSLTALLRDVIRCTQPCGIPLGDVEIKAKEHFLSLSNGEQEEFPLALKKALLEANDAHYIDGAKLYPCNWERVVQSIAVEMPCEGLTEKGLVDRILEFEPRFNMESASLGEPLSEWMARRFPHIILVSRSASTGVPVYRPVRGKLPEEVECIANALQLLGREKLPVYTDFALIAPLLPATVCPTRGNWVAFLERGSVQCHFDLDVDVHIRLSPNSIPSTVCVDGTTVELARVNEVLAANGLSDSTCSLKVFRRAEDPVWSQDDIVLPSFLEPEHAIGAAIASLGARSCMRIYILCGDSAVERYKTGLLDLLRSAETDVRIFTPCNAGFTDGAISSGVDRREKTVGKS
UniProt Q389P7: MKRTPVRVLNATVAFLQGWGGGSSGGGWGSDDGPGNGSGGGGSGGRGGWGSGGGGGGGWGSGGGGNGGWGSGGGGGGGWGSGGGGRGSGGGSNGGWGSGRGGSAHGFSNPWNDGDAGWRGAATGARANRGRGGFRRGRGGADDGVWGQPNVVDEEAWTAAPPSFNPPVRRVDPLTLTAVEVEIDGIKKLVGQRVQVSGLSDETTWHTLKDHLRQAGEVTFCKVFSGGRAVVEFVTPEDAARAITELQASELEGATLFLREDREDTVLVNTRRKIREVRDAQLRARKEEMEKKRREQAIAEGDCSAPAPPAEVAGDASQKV

What was measured:
[1] = target: cmyc-Tb927.10.1730 (Trypanosoma brucei) (UniProt Q38C69); experiment: co-IP; anti c-myc agarose beads; mitochondrial lysate of tet-induced cells prepared with 200 μg/ml RNase A (+RNase); 2 hours at 4°C; wash buffer Tris-HCl pH 8.0 10 mM, NaCl 100 mM, NP-40 0.1%; blot probed with polyclonal antibodies against MRB8170 and TbRGG2
[2] = target: cmyc-Tb927.10.1730 (Trypanosoma brucei) (UniProt Q38C69); experiment: co-IP; anti c-myc agarose beads; mitochondrial lysate of tet-induced cells prepared with 40 U RNaseOUT (-RNase); 2 hours at 4°C; wash buffer Tris-HCl pH 8.0 10 mM, NaCl 100 mM, NP-40 0.1%; blot probed with polyclonal antibodies against MRB8170 and TbRGG2

With “TbRGG2 (Tb927.10.10830) (from UniProt Q389P7)” the binding [1] was “binds” and the binding [2] was “binds”.

These are yes or no findings as the source states them, for the method shown. In cells and extracts the contact can be indirect. A result given as binding can be weak or reduced; the word gives no strength.
